Results deposited as PubChem BioAssay AID504795 (Drosophila RNAi Screening Center, 2011)

- Aim: 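Genes required for normal axon extension and glial cell shape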 (primary screen)
- Cells: primary Drosophila neurons and glia
- Reagents: long dsRNA against Drosophila genes, 250 ng dsRNA per well
- Duration: one week
- Measured: 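Descriptive morphology terms assigned by visual inspection of live automated images of GFP-marked cells, taken one week after adding 250 ng dsRNA per well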
Only reagents picked out of a larger screen are listed. 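Every listed dsRNA shows some phenotype; how reagents were selected for listing is not stated.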 Names joined by + are all predicted targets of the reagent.

predicted target,DRSC id,"phenotype seen, replicate 1","phenotype seen, replicate 2"
CG3704,DRSC18645,too many neurite branches,
CG32119,DRSC21462,axon bundles split apart,
CG31213,DRSC15647,abnormal cell clusters,
Polr3K + Tcs1,DRSC05988,axon bundles split apart,
Spn43Ad,DRSC06770,axon bundles split apart,
Ir75b,DRSC10189,abnormal cell clusters,
CG14265,DRSC18591,axon bundles split apart,
Mst57Db,DRSC21551,sheet-like cell extensions,
Sse,DRSC09746,abnormal cell clusters,
CG17839,DRSC10291,too many neurite branches,
CG1463,DRSC19603,abnormal cell clusters,
CG31872,DRSC02568,cell fragments present,abnormal cell clusters
CG31872,DRSC02572,too many neurite branches,
CG7512,DRSC10863,axon bundles split apart,
CG13075,DRSC09958,sheet-like cell extensions,
RpL4,DRSC16833,axon bundles split apart,
CG11893,DRSC14429,sheet-like cell extensions,
Or45b,DRSC07488,axon bundles split apart,
CG8170,DRSC07087,reduced axon outgrowth,
bru3,DRSC09887,cell fragments present,
comr,DRSC04138,too many neurite branches,
gammaCOP,DRSC16955,axon bundles split apart,
rn,DRSC12544,abnormal cell clusters,
rn,DRSC12546,sheet-like cell extensions,
MED27,DRSC12205,too many neurite branches,
Polr2E,DRSC06100,reduced axon outgrowth,
mRpS16,DRSC07152,fewer cells,
HmgZ,DRSC03888,abnormal cell clusters,
HmgZ,DRSC04620,fewer cells,
DIP-zeta,DRSC02203,beaded; swollen axons,
DIP-zeta,DRSC02204,axon bundles split apart,
Nrg,DRSC18688,cell fragments present,
sgl,DRSC21431,axon bundles split apart,
Hk,DRSC18674,axon bundles split apart,
Nazo,DRSC14343,reduced axon outgrowth,axon bundles split apart
ArfGAP1,DRSC11173,reduced axon outgrowth,
Pfdn2,DRSC10618,axon bundles split apart,
INPP5E,DRSC09723,too many neurite branches,
Mocs1,DRSC11225,cell fragments present,
CG14839,DRSC14963,axon bundles split apart,
CG8860,DRSC07291,abnormal cell clusters,
svp,DRSC15311,too many neurite branches,
aqz,DRSC16570,too many neurite branches,
lbe,DRSC16985,axon bundles split apart,
CG34210,DRSC04579,abnormal cell clusters,
CG1542,DRSC15035,too many neurite branches,
His4r,DRSC16703,abnormal cell clusters,
CG10943,DRSC09805,reduced axon outgrowth,
CG15185,DRSC12565,beaded; swollen axons,
CG13285,DRSC09960,too many neurite branches,
brp,DRSC06246,fewer cells,
brp,DRSC06801,fewer cells,
CG33702,DRSC08986,axon bundles split apart,
CG4537,DRSC02756,axon bundles split apart,
Bdp1,DRSC03192,reduced axon outgrowth,
CG10413,DRSC02052,axon bundles split apart,
CG5447,DRSC15801,abnormal cell clusters,
laf,DRSC12246,reduced axon outgrowth,
Nup58,DRSC16235,abnormal cell clusters,
CG3502,DRSC04381,abnormal cell clusters,
Rpn5,DRSC12367,abnormal cell clusters,
Pgant9,DRSC05621,weaker green signal,
Pgant9,DRSC06584,beaded; swollen axons,
Pgant9,DRSC07187,axon bundles split apart,
CG7220,DRSC07018,abnormal cell clusters,
Amy-d,DRSC05919,abnormal cell clusters,
CG14958,DRSC08417,axon bundles split apart,
Scp2,DRSC16854,sheet-like cell extensions,
Ran,DRSC20364,sheet-like cell extensions,
Mnt,DRSC17894,axon bundles split apart,
CG14777,DRSC18563,too many neurite branches,
br,DRSC17789,too many neurite branches,
lbl,DRSC16986,abnormal cell clusters,
Cp15,DRSC11118,sheet-like cell extensions,
Cow,DRSC14680,sheet-like cell extensions,
peb,DRSC18817,sheet-like cell extensions,
Rrp6,DRSC16223,axon bundles split apart,
modSP,DRSC21489,too many neurite branches,
CG4393,DRSC15573,too many neurite branches,
Zasp67,DRSC10169,beaded; swollen axons,
Argl + CG9515,DRSC03245,reduced axon outgrowth,
bru1,DRSC01234,abnormal cell clusters,
Ppi1,DRSC15421,reduced axon outgrowth,
Polr3A,DRSC19766,too many neurite branches,
AANATL6,DRSC06773,axon bundles split apart,
CG1428,DRSC03708,axon bundles split apart,
Exo84,DRSC15965,axon bundles split apart,
Snrk,DRSC07192,axon bundles split apart,
Nepl10,DRSC07212,fewer cells,
RpS17,DRSC11271,axon bundles split apart,
ScpX,DRSC03430,too many neurite branches,
RnrS,DRSC07533,too many neurite branches,
ETHR,DRSC15915,axon bundles split apart,
pea,DRSC07120,axon bundles split apart,
N,DRSC18685,too many neurite branches,
CG17742 (retired record),DRSC10285,sheet-like cell extensions,
CG9067,DRSC07328,too many neurite branches,
Mgat4a,DRSC11070,axon bundles split apart,
Gad1,DRSC08661,sheet-like cell extensions,
CG31612,DRSC03697,beaded; swollen axons,
CG17298,DRSC15221,too many neurite branches,
simj,DRSC10942,abnormal cell clusters,
CR18228,DRSC15317,too many neurite branches,
CNT1,DRSC06082,fewer cells,
CG31126,DRSC14623,axon bundles split apart,
CG17107,DRSC02575,too many neurite branches,
orion,DRSC18213,too many neurite branches,
EMC6,DRSC14386,too many neurite branches,
CG34203,DRSC03855,too many neurite branches,

Reprinted from above, 15 entries:
predicted target,DRSC id,"phenotype seen, replicate 1","phenotype seen, replicate 2"
gammaCOP,DRSC16955,axon bundles split apart,
rn,DRSC12544,abnormal cell clusters,
rn,DRSC12546,sheet-like cell extensions,
MED27,DRSC12205,too many neurite branches,
Polr2E,DRSC06100,reduced axon outgrowth,
mRpS16,DRSC07152,fewer cells,
HmgZ,DRSC03888,abnormal cell clusters,
HmgZ,DRSC04620,fewer cells,
DIP-zeta,DRSC02203,beaded; swollen axons,
DIP-zeta,DRSC02204,axon bundles split apart,
Nrg,DRSC18688,cell fragments present,
sgl,DRSC21431,axon bundles split apart,
Hk,DRSC18674,axon bundles split apart,
Nazo,DRSC14343,reduced axon outgrowth,axon bundles split apart
ArfGAP1,DRSC11173,reduced axon outgrowth,
